Results as given in the supplement of paper PMC8728848.
The other results are listed elsewhere or left out.

How the values were obtained:
Experiment in all cases: glycan array binding signal (z-score within array); higher = stronger binding
Settings in all cases: glycan notation: IUPAC condensed, linker removed
[1] = target: Neu5Ac(a2-6)GlcNAc(b1-4)GlcNAc(b1-4)GlcNAc
In short: (§1)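 The Consortium for Functional Glycomics database supplied 3228 glycan arrays, of which those lacking an available protein sequence were dropped. The binding signal, a within-array Z-score, was averaged across arrays of the same protein sequence and across linkers. Negative scores can be read as non-binding.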

Neu5Ac(a2-8)Neu5Ac = target: Neu5Ac(a2-8)Neu5Ac
In short: as §1

[2] = target: Neu5Ac(a2-8)Neu5Ac(a2-3)Gal(b1-3)GalNAc(b1-4)[Neu5Ac(a2-3)]Gal(b1-4)Glc
In short: as §1

[3] = target: Neu5Ac(a2-8)Neu5Ac(a2-3)Gal(b1-3)GalNAc(b1-4)[Neu5Ac(a2-8)Neu5Ac(a2-3)]Gal(b1-4)Glc
In short: as §1

[4] = target: Neu5Ac(a2-8)Neu5Ac(a2-3)Gal(b1-4)Glc
In short: as §1

[5] = target: Neu5Ac(a2-8)Neu5Ac(a2-3)Gal(b1-4)GlcNAc
In short: as §1

[6] = target: Neu5Ac(a2-8)Neu5Ac(a2-3)[Gal(b1-3)GalNAc(b1-4)]Gal(b1-4)Glc
In short: as §1

[7] = target: Neu5Ac(a2-8)Neu5Ac(a2-3)[GalNAc(b1-4)]Gal(b1-4)Glc
In short: as §1

[8] = target: Neu5Ac(a2-8)Neu5Ac(a2-8)Neu5Ac
In short: as §1

[9] = target: Neu5Ac(a2-8)Neu5Ac(a2-8)Neu5Ac(a2-3)Gal(b1-4)Glc
In short: as §1

[10] = target: Neu5Ac(a2-8)Neu5Ac(a2-8)Neu5Ac(a2-3)[Gal(b1-3)GalNAc(b1-4)]Gal(b1-4)Glc
In short: as §1

[11] = target: Neu5Ac(a2-8)Neu5Ac(a2-8)Neu5Ac(a2-3)[GalNAc(b1-4)]Gal(b1-4)Glc
In short: as §1

[12] = target: Neu5Ac(a2-8)Neu5Ac(a2-8)Neu5Ac(a2-8)Neu5Ac(a2-3)[GalNAc(b1-4)]Gal(b1-4)Glc
In short: as §1

[13] = target: Neu5Ac(a2-8)Neu5Gc(a2-3)Gal(b1-4)GlcNAc
In short: as §1

[14] = target: Neu5Ac(b2-6)Gal(b1-4)GlcNAc
In short: as §1

Neu5Ac(b2-6)GalNAc = target: Neu5Ac(b2-6)GalNAc
In short: as §1

[15] = target: Neu5Ac9Ac(a2-3)Gal(b1-3)GlcNAc
In short: as §1

[16] = target: Neu5Ac9Ac(a2-3)Gal(b1-4)GlcNAc
In short: as §1

[17] = target: Neu5Ac9Ac(a2-6)Gal(b1-4)GlcNAc
In short: as §1

[18] = target: Neu5Gc(a2-3)Gal(b1-3)GlcNAc
In short: as §1

[19] = target: Neu5Gc(a2-3)Gal(b1-3)[Fuc(a1-4)]GlcNAc
In short: as §1

Neu5Gc(a2-3)Gal(b1-4)Glc = target: Neu5Gc(a2-3)Gal(b1-4)Glc
In short: as §1

[20] = target: Neu5Gc(a2-3)Gal(b1-4)GlcNAc
In short: as §1

[21] = target: Neu5Gc(a2-3)Gal(b1-4)GlcNAc(b1-3)Gal(b1-4)GlcNAc(b1-2)Man(a1-3)[Neu5Gc(a2-3)Gal(b1-4)GlcNAc(b1-3)Gal(b1-4)GlcNAc(b1-2)Man(a1-6)]Man(b1-4)GlcNAc(b1-4)GlcNAc
In short: as §1

[22] = target: Neu5Gc(a2-3)Gal(b1-4)[Fuc(a1-3)]GlcNAc
In short: as §1

[23] = target: Neu5Gc(a2-6)Gal(b1-4)GlcNAc
In short: as §1

Neu5Gc(a2-6)GalNAc = target: Neu5Gc(a2-6)GalNAc
In short: as §1

[24] = target: Neu5Gc(a2-8)Neu5Ac(a2-3)Gal(b1-4)GlcNAc
In short: as §1

[25] = target: Neu5Gc(a2-8)Neu5Gc(a2-3)Gal(b1-4)GlcNAc
In short: as §1

[26] = target: Neu5Gc(a2-8)Neu5Gc(a2-3)Gal(b1-4)GlcNAc(b1-3)Gal(b1-4)GlcNAc
In short: as §1

[27] = target: Neu5Gc(a2-8)Neu5Gc(a2-6)Gal(b1-4)GlcNAc
In short: as §1

[28] = target: Neu5Gc(b2-6)Gal(b1-4)GlcNAc
In short: as §1

B1: Thrombomodulin Lectin (Mus musculus) (protein)
chain: LSALAKLQPTGSQCVEHECFALFQGPATFLDASQACQRLQGHLMTVRSSVAADVISLLLSQSSMDLGPWIGLQLPQGCDDPVHLGPLRGFQWVTGDNHTSYSRWARPNDQTAPLCGPLCVTVSTATEAAPGEPAWEEKPCETETQGFLCEFYFTASCRVDPIPVREDTKEEEGAGEPPVSPTPGSPTGPPSARPVLDEPRVPITQNPCPPLKECPPCAAPDLEGGPSVFIFPPKIKDVLMISLSPMVTCVVVDVSEDDPDVQISWFVNNVEVHTAQTQTHREDYNSTLRVVSALPIQHQDWMSGKAFACAVNNRALPSPIEKTISKPRGPVRAPQVYVLPPPAEEMTKKEFSLTCMITGFLPAEIAVDWTSNGRTEQNYKNTATVLDSDGSYFMYSKLRVQKSTWERGSLFACSVVHEGLHNHLTTKTISRSLGK
- glycan array binding signal (z-score) [1]: 1.62
- glycan array binding signal (z-score) (Neu5Ac(a2-8)Neu5Ac): 1.39
- glycan array binding signal (z-score) [2]: 1.68
- glycan array binding signal (z-score) [3]: -0.913
- glycan array binding signal (z-score) [4]: -0.881
- glycan array binding signal (z-score) [5]: 1.08
- glycan array binding signal (z-score) [6]: 0.046
- glycan array binding signal (z-score) [7]: 0.125
- glycan array binding signal (z-score) [8]: 1.16
- glycan array binding signal (z-score) [9]: 3.06
- glycan array binding signal (z-score) [10]: 1.45
- glycan array binding signal (z-score) [11]: -0.685
- glycan array binding signal (z-score) [12]: -1.28
- glycan array binding signal (z-score) [13]: -1.13
- glycan array binding signal (z-score) [14]: -1.24
- glycan array binding signal (z-score) (Neu5Ac(b2-6)GalNAc): 1.37
- glycan array binding signal (z-score) [15]: -0.473
- glycan array binding signal (z-score) [16]: -1.23
- glycan array binding signal (z-score) [17]: -1.01
- glycan array binding signal (z-score) [18]: -0.635
- glycan array binding signal (z-score) [19]: -1.17
- glycan array binding signal (z-score) (Neu5Gc(a2-3)Gal(b1-4)Glc): -0.363
- glycan array binding signal (z-score) [20]: -0.609
- glycan array binding signal (z-score) [21]: 0.221
- glycan array binding signal (z-score) [22]: 1.05
- glycan array binding signal (z-score) [23]: -0.944
- glycan array binding signal (z-score) (Neu5Gc(a2-6)GalNAc): -0.901
- glycan array binding signal (z-score) [24]: -1.71
- glycan array binding signal (z-score) [25]: -1.76
- glycan array binding signal (z-score) [26]: 0.012
- glycan array binding signal (z-score) [27]: 0.139
- glycan array binding signal (z-score) [28]: 0.767
